Laboratory results from paper PMC8050843.

The chains behind the UniProt entries cited, without tags or fusion partners. Where a name states a change or a piece, a line headed by the entry shows the natural chain unless it says otherwise. A line that says so, or that is headed by a name, gives the form on record, which may keep a tag or linker.
UniProt P40460: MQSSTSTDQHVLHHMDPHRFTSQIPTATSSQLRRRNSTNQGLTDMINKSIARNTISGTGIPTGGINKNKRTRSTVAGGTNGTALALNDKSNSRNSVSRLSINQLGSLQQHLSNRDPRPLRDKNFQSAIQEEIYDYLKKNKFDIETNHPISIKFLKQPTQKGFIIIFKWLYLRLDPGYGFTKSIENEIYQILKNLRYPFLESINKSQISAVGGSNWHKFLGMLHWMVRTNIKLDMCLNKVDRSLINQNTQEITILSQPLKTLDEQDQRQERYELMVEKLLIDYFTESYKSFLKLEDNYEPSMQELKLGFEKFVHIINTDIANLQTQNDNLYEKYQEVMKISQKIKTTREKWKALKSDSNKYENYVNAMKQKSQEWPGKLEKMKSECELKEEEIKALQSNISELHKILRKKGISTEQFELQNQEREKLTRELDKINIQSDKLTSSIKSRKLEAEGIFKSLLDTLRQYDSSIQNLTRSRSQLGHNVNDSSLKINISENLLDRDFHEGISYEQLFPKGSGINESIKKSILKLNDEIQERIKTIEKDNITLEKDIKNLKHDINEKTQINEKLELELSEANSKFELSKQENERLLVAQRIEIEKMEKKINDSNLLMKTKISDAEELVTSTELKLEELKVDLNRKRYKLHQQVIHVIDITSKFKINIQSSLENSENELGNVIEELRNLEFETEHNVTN
Ndc80-7D-3xGFP (P40460, form named): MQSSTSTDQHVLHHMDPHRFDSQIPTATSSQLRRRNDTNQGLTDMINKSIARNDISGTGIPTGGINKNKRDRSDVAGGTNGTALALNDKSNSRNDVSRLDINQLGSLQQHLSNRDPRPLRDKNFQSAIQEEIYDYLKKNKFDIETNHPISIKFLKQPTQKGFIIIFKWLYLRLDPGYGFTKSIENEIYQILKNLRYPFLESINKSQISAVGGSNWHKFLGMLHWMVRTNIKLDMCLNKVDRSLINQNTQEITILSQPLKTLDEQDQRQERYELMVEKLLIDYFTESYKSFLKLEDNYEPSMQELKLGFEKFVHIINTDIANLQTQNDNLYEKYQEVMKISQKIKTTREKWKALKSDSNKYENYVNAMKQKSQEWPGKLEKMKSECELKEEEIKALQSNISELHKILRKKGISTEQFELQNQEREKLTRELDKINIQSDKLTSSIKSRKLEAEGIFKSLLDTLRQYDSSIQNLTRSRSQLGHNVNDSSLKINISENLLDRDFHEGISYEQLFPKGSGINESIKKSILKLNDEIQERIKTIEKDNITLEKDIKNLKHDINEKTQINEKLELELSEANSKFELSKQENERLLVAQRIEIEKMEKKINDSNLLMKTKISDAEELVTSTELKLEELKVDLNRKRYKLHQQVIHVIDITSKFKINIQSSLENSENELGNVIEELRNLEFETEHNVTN

T1: Dsn1-3xFLAG (budding yeast) (UniProt P40568)
T1 sequence: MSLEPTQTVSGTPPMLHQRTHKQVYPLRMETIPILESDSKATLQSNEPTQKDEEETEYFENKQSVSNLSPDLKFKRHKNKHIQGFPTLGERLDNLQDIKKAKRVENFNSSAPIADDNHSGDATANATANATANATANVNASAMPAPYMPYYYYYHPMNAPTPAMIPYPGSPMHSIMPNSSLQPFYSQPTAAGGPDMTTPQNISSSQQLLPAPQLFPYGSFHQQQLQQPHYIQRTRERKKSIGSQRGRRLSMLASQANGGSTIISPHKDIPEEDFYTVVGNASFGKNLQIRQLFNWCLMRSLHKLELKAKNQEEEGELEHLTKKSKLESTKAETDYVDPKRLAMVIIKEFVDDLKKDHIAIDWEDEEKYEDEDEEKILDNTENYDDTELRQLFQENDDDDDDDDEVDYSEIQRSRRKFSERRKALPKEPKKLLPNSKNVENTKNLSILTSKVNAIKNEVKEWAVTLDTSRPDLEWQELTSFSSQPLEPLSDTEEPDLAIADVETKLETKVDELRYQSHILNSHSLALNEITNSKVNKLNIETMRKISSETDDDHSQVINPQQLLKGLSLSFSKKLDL

B1: Stu2 (protein, UniProt P46675 1-888)
chain: MSGEEEVDYTTLPLEERLTYKLWKARLEAYKELNQLFRNSVGDISRDDNIQIYWRDPTLFAQYITDSNVVAQEQAIVALNSLIDAFASSSLKNAHNITLISTWTPLLVEKGLTSSRATTKTQSMSCILSLCGLDTSITQSVELVIPFFEKKLPKLIAAAANCVYELMAAFGLTNVNVQTFLPELLKHVPQLAGHGDRNVRSQTMNLIVEIYKVTGNNSDLLEEILFKKLKPIQVKDLHKLFAKVGDEPSSSKMLFEWEKRELEKKRSQEEEARKRKSILSNDEGEYQIDKDGDTLMGMETDMPPSKQQSGVQIDTFSMLPEETILDKLPKDFQERITSSKWKDRVEALEEFWDSVLSQTKKLKSTSQNYSNLLGIYGHIIQKDANIQAVALAAQSVELICDKLKTPGFSKDYVSLVFTPLLDRTKEKKPSVIEAIRKALLTICKYYDPLASSGRNEDMLKDILEHMKHKTPQIRMECTQLFNASMKEEKDGYSTLQRYLKDEVVPIVIQIVNDTQPAIRTIGFESFAILIKIFGMNTFVKTLEHLDNLKRKKIEETVKTLPNFSIASGSTHSTIETNKQTGPMENKFLLKKSSVLPSKRVASSPLRNDNKSKVNPIGSVASASKPSMVAANNKSRVLLTSKSLATPKNVVANSTDKNEKLIEEYKYRLQKLQNDEMIWTKERQSLLEKMNNTENYKIEMIKENEMLREQLKEAQSKLNEKNIQLRSKEIDVNKLSDRVLSLENELRNMEIELDRNKKRNDTNLQSMGTISSYSIPSSTVSSNYGVKSLSSALPFKEEEDVRRKEDVNYERRSSESIGDLPHRVNSLNIRPYRKNGTGVSSVSDDLDIDFNDSFASEESYKRAAAVTSTLKARIEKMKAKSRREGTTRT

How the values were obtained:
[1] = biological target: T1, Dsn1-3xFLAG (budding yeast); assay: affinity purification with mass spectrometry; Dsn1-3xFLAG captured from lysate of Dam1-depleted (NAA-treated) yeast on anti-FLAG M2 magnetic beads, buffer H with 150 mM KCl, eluted with FLAG peptide; SDS-PAGE and LC-MS
[2] = biological target: T1, Dsn1-3xFLAG (budding yeast); assay: as above; remark: listed apart in the source

Molecule | binding [1] | binding [2]
Ndc80-7D-3xGFP (from UniProt P40460 1-691) | binds | 
Ndc80-3xGFP (Ndc80-WT) (from UniProt P40460 1-691) | binds | 
B1 |  | binds

Where two headings read alike, the source gives them in different places. No constants are given. Whether binding was seen depends on the method and setting. In cells and extracts the contact can be indirect. Here binding means that the protein was enriched with, or labelled near, the bait; the list need not be complete. Sequences can lack the tags named with a protein.
